{
  "sequences": {"note": "Protein sequences, listed by entry. Tags and fused reporters are not part of them.", "UniProt Q00975, whole entry, looked up": "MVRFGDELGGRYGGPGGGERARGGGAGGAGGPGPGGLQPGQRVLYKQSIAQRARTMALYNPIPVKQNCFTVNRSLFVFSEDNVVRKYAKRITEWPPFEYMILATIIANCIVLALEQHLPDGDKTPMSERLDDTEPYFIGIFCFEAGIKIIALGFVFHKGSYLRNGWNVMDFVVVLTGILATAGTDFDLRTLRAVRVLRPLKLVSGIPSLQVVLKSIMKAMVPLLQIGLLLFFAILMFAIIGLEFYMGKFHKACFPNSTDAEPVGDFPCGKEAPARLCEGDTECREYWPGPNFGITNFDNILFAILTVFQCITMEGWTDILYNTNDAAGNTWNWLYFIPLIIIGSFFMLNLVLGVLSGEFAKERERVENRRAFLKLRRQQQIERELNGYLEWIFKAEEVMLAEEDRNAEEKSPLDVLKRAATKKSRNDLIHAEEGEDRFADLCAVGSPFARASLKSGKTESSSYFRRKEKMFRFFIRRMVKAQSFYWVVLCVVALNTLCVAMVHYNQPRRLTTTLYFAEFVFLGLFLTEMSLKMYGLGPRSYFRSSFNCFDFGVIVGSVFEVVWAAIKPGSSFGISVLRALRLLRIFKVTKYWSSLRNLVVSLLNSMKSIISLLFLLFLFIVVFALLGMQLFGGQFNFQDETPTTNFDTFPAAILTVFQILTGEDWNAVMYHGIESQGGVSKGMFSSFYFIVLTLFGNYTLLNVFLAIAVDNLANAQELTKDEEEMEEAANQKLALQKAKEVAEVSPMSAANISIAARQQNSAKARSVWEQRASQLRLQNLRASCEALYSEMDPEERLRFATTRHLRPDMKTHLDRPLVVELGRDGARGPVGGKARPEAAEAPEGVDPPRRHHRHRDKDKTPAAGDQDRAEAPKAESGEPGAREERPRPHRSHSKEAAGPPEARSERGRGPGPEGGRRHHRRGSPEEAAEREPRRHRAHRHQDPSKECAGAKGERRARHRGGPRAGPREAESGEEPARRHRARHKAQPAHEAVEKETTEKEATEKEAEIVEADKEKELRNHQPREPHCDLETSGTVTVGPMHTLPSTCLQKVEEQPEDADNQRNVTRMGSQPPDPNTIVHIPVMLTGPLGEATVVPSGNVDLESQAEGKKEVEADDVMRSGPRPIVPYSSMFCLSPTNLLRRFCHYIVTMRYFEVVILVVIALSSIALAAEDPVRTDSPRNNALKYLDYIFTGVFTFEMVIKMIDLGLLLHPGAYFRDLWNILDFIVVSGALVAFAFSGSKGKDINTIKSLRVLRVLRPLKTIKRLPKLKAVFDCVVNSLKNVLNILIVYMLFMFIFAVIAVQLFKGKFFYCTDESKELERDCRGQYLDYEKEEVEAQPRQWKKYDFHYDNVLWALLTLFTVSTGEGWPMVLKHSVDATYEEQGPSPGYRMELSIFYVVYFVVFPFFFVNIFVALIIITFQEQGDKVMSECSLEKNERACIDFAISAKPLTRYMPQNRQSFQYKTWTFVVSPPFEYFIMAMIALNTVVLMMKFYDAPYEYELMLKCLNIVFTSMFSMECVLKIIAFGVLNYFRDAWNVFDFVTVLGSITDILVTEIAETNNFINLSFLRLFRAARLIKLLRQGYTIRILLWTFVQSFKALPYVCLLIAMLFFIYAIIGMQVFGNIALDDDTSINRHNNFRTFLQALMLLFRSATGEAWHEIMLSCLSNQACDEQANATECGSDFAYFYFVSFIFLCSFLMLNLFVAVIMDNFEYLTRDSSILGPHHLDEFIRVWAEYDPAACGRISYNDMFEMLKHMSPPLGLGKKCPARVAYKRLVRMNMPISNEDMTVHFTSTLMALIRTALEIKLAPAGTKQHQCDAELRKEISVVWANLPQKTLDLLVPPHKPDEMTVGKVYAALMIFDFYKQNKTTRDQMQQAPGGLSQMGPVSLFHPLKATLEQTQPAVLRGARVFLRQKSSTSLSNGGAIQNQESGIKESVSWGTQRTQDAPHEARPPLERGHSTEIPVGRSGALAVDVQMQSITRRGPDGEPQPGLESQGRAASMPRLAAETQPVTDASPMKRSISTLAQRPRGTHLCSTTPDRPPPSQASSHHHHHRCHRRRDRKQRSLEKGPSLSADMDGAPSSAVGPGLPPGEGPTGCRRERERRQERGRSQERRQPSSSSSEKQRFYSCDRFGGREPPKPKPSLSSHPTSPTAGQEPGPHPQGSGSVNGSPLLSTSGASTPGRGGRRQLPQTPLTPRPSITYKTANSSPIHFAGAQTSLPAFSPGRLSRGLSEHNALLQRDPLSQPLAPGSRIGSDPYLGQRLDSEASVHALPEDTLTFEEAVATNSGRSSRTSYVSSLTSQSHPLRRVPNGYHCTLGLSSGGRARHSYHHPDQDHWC"},
  "source": "PubChem BioAssay AID2073",
  "about": "(Sanford-Burnham Center for Chemical Genomics, 2009)",
  "note": "The whole screen tested about 290,000 compounds, of which about 570 (0.2%) were called active. This list was built around the results that the source calls inconclusive (neither active nor inactive); the mix of calls is not that of the screen. Cut-off read from the data, not from the text of the source: active = inhibition mostly above about 51% (no sharp cut-off); inconclusive = no clear call, values can overlap the other calls; inactive = mostly below about 53%.",
  "data": [
    {"biological_target": "Voltage-dependent N-type calcium channel subunit alpha-1B (Homo sapiens) (UniProt Q00975)", "assay": "disruptors of CaV2.2 binding to Mint1 – biochemical, HTRF (AID 2073)", "conditions": "HTRF protein-protein interaction, Mint1-CaV2.2; at 20 µM; hits give high values", "values": [
      {"smiles": "O=C(O)CCCCCCCC(=O)O", "inhibition": "inactive: 0.9%"},
      {"smiles": "COc1ccc(N2C(=O)C(Cl)=C(N3CCCC3)C2=O)cc1", "inhibition": "inactive: 19.5%"},
      {"smiles": "CC(=O)Nc1cccc(NC(=O)c2ccc(C)c([N+](=O)[O-])c2)c1", "inhibition": "inconclusive: 69.4%"},
      {"smiles": "O=C(NC1CCCC1)c1cccc(Oc2ccccc2)c1", "inhibition": "inconclusive: 69.5%"},
      {"smiles": "COc1cc(C(=O)Nc2nc3ccc(S(=O)(=O)N4CCOCC4)cc3s2)cc(OC)c1OC", "inhibition": "inconclusive: 70.2%"},
      {"smiles": "CCOC(=O)CN1C(=O)S/C(=C/c2cccc([N+](=O)[O-])c2O)C1=O", "inhibition": "inconclusive: 66.4%"},
      {"smiles": "Cn1c(=O)c2c(nc(OCc3cccnc3)n2Cc2ccccc2)n(C)c1=O", "inhibition": "inconclusive: 55.9%"},
      {"smiles": "CC1=C(c2ccccc2)[N+](=O)C2(CCCC2)N1[O-]", "inhibition": "inconclusive: 57.9%"},
      {"smiles": "COc1ccc(-c2nnc(SCC(=O)c3ccc(O)cc3O)o2)cc1", "inhibition": "inconclusive: 76.3%"},
      {"smiles": "O=C(Nc1ncc(Cc2cccc(Cl)c2)s1)c1ccc([N+](=O)[O-])cc1", "inhibition": "inconclusive: 71.1%"},
      {"smiles": "Cc1ccc(C(C)C)c(OCc2ccc(-c3nnco3)cc2)c1", "inhibition": "inconclusive: 58.2%"},
      {"smiles": "O=C(COc1ccc([N+](=O)[O-])cc1)NC(C(=O)O)C(O)c1cccc([N+](=O)[O-])c1", "note": "(configuration not stated)", "inhibition": "inconclusive: 68.2%"},
      {"smiles": "Cn1c(=O)c2c(nc(CN3CCN(C(=O)c4ccco4)CC3)n2Cc2ccc(F)cc2)n(C)c1=O", "inhibition": "inconclusive: 91.9%"},
      {"smiles": "COc1ccc(N2CCN(C(=O)c3ccc(CS(=O)c4cccc(C)c4)o3)CC2)cc1", "note": "(configuration not stated)", "inhibition": "inconclusive: 81%"},
      {"smiles": "Cn1c(C(N)=O)cnc1Sc1ncc(C(F)(F)F)cc1Cl", "inhibition": "inconclusive: 68.3%"},
      {"smiles": "COCCn1nnnc1CN(Cc1cc2cc(OC)c(OC)cc2[nH]c1=O)C1CCCC1", "inhibition": "inconclusive: 51.4%"},
      {"smiles": "CCN(CC)c1ccc(/C=c2\\sc3nnc(-c4ccccc4Cl)n3c2=O)cc1", "inhibition": "inconclusive: 71.4%"},
      {"smiles": "COc1ccc([N+](=O)[O-])cc1NC(=O)COC(=O)c1ccc(O)cc1", "inhibition": "inconclusive: 59.5%"},
      {"smiles": "CCCN1Cc2cccc(C(=O)NC(CC(=O)OCC)c3ccc(OC(C)C)cc3)c2C1=O", "note": "(configuration not stated)", "inhibition": "inactive: -3.9%"},
      {"smiles": "CC(=O)N1CCN(c2nc(-c3cccs3)nc3ccccc23)CC1", "inhibition": "inconclusive: 52.1%"},
      {"smiles": "CC(C)CC(NC(N)=O)C(=O)Nc1ccc(Cl)c(Cl)c1", "note": "(configuration not stated)", "inhibition": "inconclusive: 64.6%"},
      {"smiles": "CCN(C(=O)COC(=O)c1cc(OC)c(OC)cc1[N+](=O)[O-])C1CCS(=O)(=O)C1", "note": "(configuration not stated)", "inhibition": "inconclusive: 57.7%"},
      {"smiles": "CCOC(=O)c1sc2nc(C(C)C)c3c(c2c1N)CC(C)(C)OC3", "inhibition": "inconclusive: 83.5%"},
      {"smiles": "CCc1cc(C(=O)N2CCCC(C(=O)c3ccc(C(F)(F)F)cc3)C2)n(C)n1", "note": "(configuration not stated)", "inhibition": "inactive: 5.5%"},
      {"smiles": "COc1ccc(C2NCCc3cc(OC)c(OC)cc32)cc1OC", "note": "(configuration not stated)", "inhibition": "inconclusive: 52.9%"},
      {"smiles": "Cc1ccc(S(=O)(=O)N2CCN(C(=O)Cn3nc(C(=O)O)c4ccccc4c3=O)CC2)cc1", "inhibition": "inconclusive: 88.4%"},
      {"smiles": "CCOC(=O)N1CCN(c2c(NCCN3CCCCC3CC)c(=O)c2=O)CC1", "note": "(configuration not stated)", "inhibition": "inconclusive: 54.3%"},
      {"smiles": "CCOc1ccc(/C(O)=C2/C(=O)C(=O)N(CCCn3ccnc3)C2c2cccs2)cc1Cl", "note": "(configuration not stated)", "inhibition": "inconclusive: 64%"},
      {"smiles": "O=C1c2ccccc2C(=O)N1OCc1c(F)cccc1Cl", "inhibition": "inactive: 16.6%"},
      {"smiles": "Cc1ccc(-c2nc3cc(N)ccc3o2)cc1", "inhibition": "inconclusive: 64.2%"},
      {"smiles": "COc1ccccc1N(CC(O)CN1CCOCC1)S(=O)(=O)c1ccccc1", "note": "(configuration not stated)", "inhibition": "inconclusive: 54.6%"},
      {"smiles": "COc1cc(OC)c(C2C(C#N)=C(C)NC(C)=C2C#N)c(C(=O)O)c1", "inhibition": "inactive: -3.5%"},
      {"smiles": "COc1cc(/C=C2\\SC(=S)N(Nc3ncc(C(F)(F)F)cc3Cl)C2=O)ccc1O", "inhibition": "inconclusive: 60.2%"},
      {"smiles": "Cc1oc(-c2ccccc2Cl)nc1CS(=O)CC(=O)NCc1ccco1", "note": "(configuration not stated)", "inhibition": "inactive: 19.1%"},
      {"smiles": "COc1ccc(-c2nnn3c2nc(NCc2ccccc2)c2ccccc23)cc1", "inhibition": "inconclusive: 58.5%"},
      {"smiles": "COc1cc(CNc2ccc3[nH]c(=O)[nH]c3c2)ccc1OCC(=O)NC(C)(C)C", "inhibition": "inactive: 43.9%"},
      {"smiles": "O=S(=O)(NCc1ccc(Cl)cc1)NCc1ccc(Cl)cc1", "inhibition": "inconclusive: 58.6%"},
      {"smiles": "CCCCN(CC)S(=O)(=O)c1ccc(C(=O)N=c2sc3cc(NC(C)=O)ccc3n2C)cc1", "inhibition": "inconclusive: 71.4%"},
      {"smiles": "COc1nc2ccccc2nc1OC", "inhibition": "inactive: -4.1%"},
      {"smiles": "COc1ccc(C(=O)N(CCc2ccccc2)Cc2ccccc2)c(OC)n1", "inhibition": "inconclusive: 54%"},
      {"smiles": "O=c1[nH]c2cc3c(cc2cc1CN(CC1CCCO1)S(=O)(=O)c1ccc(Cl)cc1)OCCO3", "note": "(configuration not stated)", "inhibition": "inconclusive: 54.7%"},
      {"smiles": "COc1ccc(OC)c(NC(=O)c2c(NC(=O)CCC(=O)O)sc3c2CCCCC3)c1", "inhibition": "active: 65.1%"},
      {"smiles": "COc1ccc(CN(C)C(C)C(=O)Nc2cccc3ccccc23)cc1", "note": "(configuration not stated)", "inhibition": "inconclusive: 52%"},
      {"smiles": "c1ccc(-c2nc(-n3ccnc3)nc(-n3ccnc3)n2)cc1", "inhibition": "inconclusive: 78.1%"},
      {"smiles": "CCn1c(SCC(=O)Nc2ccc(Cl)cc2)nc2nc3c(cc2c1=O)CCCC3", "inhibition": "inconclusive: 56.5%"},
      {"smiles": "CCN(CCN1CCCC1)C(=O)c1cc(COc2ccccc2SC)on1", "inhibition": "inconclusive: 59.9%"},
      {"smiles": "COc1cc(/C=N/NC(=O)C(C)Nc2n[nH]c(=O)[nH]c2=O)ccc1O", "note": "(configuration not stated)", "inhibition": "inconclusive: 51.4%"},
      {"smiles": "CCCCOC(=O)Nc1ccc(OC)cc1S(=O)(=O)N1CCOCC1", "inhibition": "inconclusive: 89.3%"},
      {"smiles": "CCOc1ccc(NC(=O)Nc2ccccc2C(N)=O)cc1", "inhibition": "inconclusive: 59.4%"},
      {"smiles": "CCCCCCCCCCCCC(NC(C)=O)(C(=O)OCC)C(=O)OCC", "inhibition": "inconclusive: 61.3%"},
      {"smiles": "Cc1ccc2[nH]c3c(=S)nc[nH]c3c2c1", "inhibition": "inconclusive: 68.3%"},
      {"smiles": "CCOc1ccc2nc(NC(=O)C3CCN(c4cnccn4)CC3)sc2c1", "inhibition": "inconclusive: 64.7%"},
      {"smiles": "O=C(NCc1ccccc1)c1sc(=S)n2c1[nH]c(=O)c1ccccc12", "inhibition": "inactive: -8.6%"},
      {"smiles": "Cc1cccc(OC(C)C(=O)Nc2ccc(S(=O)(=O)N3CCCC3)cc2)c1", "note": "(configuration not stated)", "inhibition": "inconclusive: 50.6%"},
      {"smiles": "NC(=O)CSc1nc2ccc([N+](=O)[O-])cc2[nH]1", "inhibition": "inconclusive: 61%"},
      {"smiles": "CCCn1c(C(C)Nc2nc(-c3ccc(Cl)c([N+](=O)[O-])c3)cs2)nc2cc(Cl)c(N3CCCCC3)cc21", "note": "(configuration not stated)", "inhibition": "inactive: 21%"},
      {"smiles": "FC(F)(F)c1nc(=S)c2ccccc2[nH]1", "inhibition": "inconclusive: 51.1%"},
      {"smiles": "Cc1cc(C)cc(NC(=O)C(OC(=O)c2sccc2C)c2ccccc2)c1", "note": "(configuration not stated)", "inhibition": "inconclusive: 89.3%"},
      {"smiles": "COc1ccc(CNC(=O)/C(C#N)=C2\\N=C(NC(=O)c3cccs3)c3ccccc32)cc1", "inhibition": "inconclusive: 58.3%"},
      {"smiles": "CC(C)CCNC(=O)C1CC(c2cccc(F)c2)=NO1", "note": "(configuration not stated)", "inhibition": "inconclusive: 66.7%"},
      {"smiles": "COc1ccc(S(=O)(=O)N2CCCC2c2cccs2)cc1", "note": "(configuration not stated)", "inhibition": "inconclusive: 55.8%"},
      {"smiles": "CCCN1CCN(C(=O)Cn2cnc3ccc(S(=O)(=O)N4CCC(C)CC4)cc3c2=O)CC1", "inhibition": "inconclusive: 81.1%"},
      {"smiles": "Cc1cc(-c2ccccc2C(=O)Nc2ccccc2O)on1", "inhibition": "inconclusive: 63.6%"},
      {"smiles": "Oc1ccc(N=Cc2ccc(O)c(O)c2)cc1", "inhibition": "inconclusive: 69.9%"},
      {"smiles": "CC1CCCN(CCCNC(=O)c2cn(C)c3ccc(S(=O)(=O)N(C)C4CCCCC4)cc3c2=O)C1", "note": "(configuration not stated)", "inhibition": "inconclusive: 80%"},
      {"smiles": "O=C(O)c1ccc(NNC(=S)Nc2cc(C(F)(F)F)ccc2Cl)cc1", "inhibition": "inconclusive: 93.3%"},
      {"smiles": "CC(C)Nc1oc(-c2cccc3ccccc23)nc1C#N", "inhibition": "inconclusive: 53.8%"},
      {"smiles": "CCOC(=O)C1=C(O)c2ccccc2C(=O)/C1=C\\c1ccc(CC)cc1", "inhibition": "active: 54.8%"},
      {"smiles": "CC(=O)c1ccc(-c2cccs2)s1", "inhibition": "inconclusive: 84%"},
      {"smiles": "COC(=O)c1oc2ccccc2c1-n1cccc1", "inhibition": "inconclusive: 61.8%"},
      {"smiles": "Cc1ccc(-n2c(=O)c3cc4c(=O)n(-c5ccc(C)c(C)c5)c(=O)c4c(C(=O)c4ccc(C(=O)O)cc4)c3c2=O)cc1C", "inhibition": "active: 85%"},
      {"smiles": "O=C(NCc1ccc(F)cc1)c1ccccc1OCc1ccccc1", "inhibition": "inconclusive: 55.3%"},
      {"smiles": "COc1ccc(-n2nc(C(=O)NCC(=O)NCCCN3CC(C)CC(C)C3)c3ccccc3c2=O)cc1", "note": "(configuration not stated)", "inhibition": "inactive: 3.3%"},
      {"smiles": "CCCc1nn2c(=O)c(C(c3ccc(C)cc3)c3c(O)nc4sc(CCC)nn4c3=O)c(O)nc2s1", "inhibition": "inconclusive: 60.5%"},
      {"smiles": "CC(C)(C)c1ccc(OCC(=O)NCCN2CCOCC2)cc1", "inhibition": "inconclusive: 59.4%"},
      {"smiles": "COc1ccc(NS(=O)(=O)c2cc(OC)ccc2NC(=O)c2cc(C)oc2C)cc1", "inhibition": "inconclusive: 56.2%"},
      {"smiles": "CCc1cccc(NS(=O)(=O)c2c(C)nc3sc(CC)nn3c2=O)c1", "inhibition": "inconclusive: 55%"},
      {"smiles": "Cc1ccccc1CN(C)CCc1ccccn1", "inhibition": "inconclusive: 98.8%"},
      {"smiles": "COc1cc(CNCCO)cc(Br)c1OCc1cccs1", "inhibition": "inactive: -3.4%"},
      {"smiles": "Cc1ccccc1-c1ncc(CN2CCC(CO)(CCCc3ccccc3)CC2)cn1", "inhibition": "inconclusive: 67.6%"},
      {"smiles": "O=C(CCCOc1ccc(Cl)cc1Cl)NCc1ccncc1", "inhibition": "inconclusive: 62.7%"},
      {"smiles": "Cc1cc2[nH]c3c(c[n+](C)c4ccccc34)c2cc1C", "inhibition": "inconclusive: 89.7%"},
      {"smiles": "COc1ccc(CCNC(=O)CN(c2cccc([N+](=O)[O-])c2)S(C)(=O)=O)cc1", "inhibition": "inconclusive: 77.9%"},
      {"smiles": "O=C1[C@H]2[C@H]3[C@H](O)[C@H](O)C/C(=N\\OC[C@@H](O)COCc4ccco4)[C@@H]3CC[C@H]2C(=O)N1c1ccc(F)cc1F", "inhibition": "inconclusive: 81.7%"},
      {"smiles": "COc1cccc(-c2nnc(Nc3nc4c(F)cccc4s3)o2)c1", "inhibition": "inactive: 43.9%"},
      {"smiles": "Cc1ccccc1C(=O)Nc1ccc(C(=O)NNC(=O)CCCOc2ccc(Cl)cc2Cl)cc1", "inhibition": "inconclusive: 56%"},
      {"smiles": "O=C(OC(c1ccccc1)c1nccc2ccccc12)c1cccc([N+](=O)[O-])c1", "note": "(configuration not stated)", "inhibition": "inconclusive: 79.2%"}
    ]}
  ]
}
